The results in this text go back to PMC5677176.

Results are given in words; binding and its absence hold for the method and conditions named. In cells and extracts the contact can be indirect. Some entries that bind do so weakly or less than the wild type. Where a sequence is shown, tags or fusion partners need not be part of it.

The target of this assay is T1, Xenopus Dvl2 (Xdsh), full-length, myc-tagged (Xenopus) (UniProt P51142).
T1 sequence: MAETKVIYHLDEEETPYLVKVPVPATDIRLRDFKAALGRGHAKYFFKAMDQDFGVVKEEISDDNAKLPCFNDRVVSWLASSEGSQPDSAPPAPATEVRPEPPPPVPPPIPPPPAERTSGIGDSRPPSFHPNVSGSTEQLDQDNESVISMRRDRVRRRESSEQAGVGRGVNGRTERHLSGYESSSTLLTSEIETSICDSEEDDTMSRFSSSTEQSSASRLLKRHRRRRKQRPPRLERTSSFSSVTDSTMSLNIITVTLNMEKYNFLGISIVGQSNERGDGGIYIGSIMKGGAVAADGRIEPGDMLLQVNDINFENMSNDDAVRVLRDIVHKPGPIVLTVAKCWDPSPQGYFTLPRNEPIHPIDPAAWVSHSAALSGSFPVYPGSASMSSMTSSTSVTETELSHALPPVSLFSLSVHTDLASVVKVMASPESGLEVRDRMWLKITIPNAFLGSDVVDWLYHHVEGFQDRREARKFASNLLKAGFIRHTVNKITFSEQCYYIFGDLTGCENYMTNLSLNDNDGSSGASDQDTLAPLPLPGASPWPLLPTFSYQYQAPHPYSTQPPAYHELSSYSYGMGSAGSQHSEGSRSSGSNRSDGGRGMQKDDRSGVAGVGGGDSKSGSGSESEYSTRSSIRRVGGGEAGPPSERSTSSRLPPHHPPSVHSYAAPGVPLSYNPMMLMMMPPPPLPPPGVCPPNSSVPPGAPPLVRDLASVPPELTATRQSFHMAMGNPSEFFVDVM
As to the kind of experiment: co-IP; HEK293T cells transfected for 24 h; lysis in 150 mM NaCl, 50 mM Tris-HCl pH 7.5, 1% Triton X-100; precipitation with anti-myc agarose beads, 2 h at 4 °C; five washes with 500 mM NaCl; blots with anti-myc or anti-Flag.

B1: Flag-Lurap1 (zebrafish leucine repeat adaptor protein 1, full-length) (protein, UniProt A7MC09 1-286)
chain: MEESNNTCESVPDLKDLELKVGRKTPEGLLKWMREEHKMVSHHQTDNNETEKKGLDGKIRKLKMEMAHLRAADVKILNQLLALHEGIEAVKWLLEERGALTSRCSSLTSSQYSLGEGPDTSWRGSWSSLQDPHDELDNISIGSYLDTLADELDEYCPSSGTESMLCATPMGTGGGVSSSTGSGSRPPQVKTDATKEEAQVWNKAPSETARVNKTNGTLDKTATQLVSSDSPRACLAEKLGKNLSPKVKPYKNGKVELESCKKNGKVQLEYDAHWRWVQSQDDVTFL
On to B1, for which the binding result is given as “binds”.
